Experimental data taken from PMC9772344.
Results are given in words; binding and its absence hold for the method and conditions named. Binding seen in cells or lysates may run through a third protein. A result given as binding can be weak or reduced; the word gives no strength.

The chains behind the UniProt entries cited, without tags or fusion partners. Where a name states a change or a piece, a line headed by the entry shows the natural chain unless it says otherwise. Residues count along the entry.
UniProt Q13586, residues 23-685: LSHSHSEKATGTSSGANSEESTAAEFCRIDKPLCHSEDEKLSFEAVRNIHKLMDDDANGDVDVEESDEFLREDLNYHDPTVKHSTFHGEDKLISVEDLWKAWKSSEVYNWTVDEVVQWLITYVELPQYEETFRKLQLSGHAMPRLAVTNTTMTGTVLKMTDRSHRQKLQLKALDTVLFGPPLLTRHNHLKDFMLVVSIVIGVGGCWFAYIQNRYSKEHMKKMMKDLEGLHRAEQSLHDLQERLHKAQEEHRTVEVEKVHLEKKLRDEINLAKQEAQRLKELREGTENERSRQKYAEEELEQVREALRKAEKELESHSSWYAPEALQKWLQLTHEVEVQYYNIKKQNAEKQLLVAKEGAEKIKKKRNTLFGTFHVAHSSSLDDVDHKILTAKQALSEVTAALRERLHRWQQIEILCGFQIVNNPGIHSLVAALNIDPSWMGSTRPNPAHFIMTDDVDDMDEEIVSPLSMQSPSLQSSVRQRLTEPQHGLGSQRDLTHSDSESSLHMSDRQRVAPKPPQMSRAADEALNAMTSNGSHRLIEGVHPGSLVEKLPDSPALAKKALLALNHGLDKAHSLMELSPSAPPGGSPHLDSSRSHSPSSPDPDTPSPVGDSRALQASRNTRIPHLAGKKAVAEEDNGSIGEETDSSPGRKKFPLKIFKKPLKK
UniProt P43006: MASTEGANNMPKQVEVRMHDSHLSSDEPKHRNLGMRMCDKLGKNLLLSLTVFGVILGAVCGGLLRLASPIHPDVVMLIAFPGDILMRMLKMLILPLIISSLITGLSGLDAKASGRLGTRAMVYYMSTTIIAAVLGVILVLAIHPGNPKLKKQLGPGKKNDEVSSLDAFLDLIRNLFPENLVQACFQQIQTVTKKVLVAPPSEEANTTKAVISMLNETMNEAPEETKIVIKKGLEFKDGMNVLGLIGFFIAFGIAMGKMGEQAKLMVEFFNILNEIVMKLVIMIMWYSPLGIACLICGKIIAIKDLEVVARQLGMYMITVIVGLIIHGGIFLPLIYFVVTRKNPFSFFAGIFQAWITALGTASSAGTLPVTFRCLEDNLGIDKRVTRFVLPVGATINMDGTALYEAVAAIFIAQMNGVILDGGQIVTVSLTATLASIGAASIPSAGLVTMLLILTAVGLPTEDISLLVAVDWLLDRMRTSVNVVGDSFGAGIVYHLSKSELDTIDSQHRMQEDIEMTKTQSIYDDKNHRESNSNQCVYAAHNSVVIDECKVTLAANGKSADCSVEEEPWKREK
UniProt Q96D31: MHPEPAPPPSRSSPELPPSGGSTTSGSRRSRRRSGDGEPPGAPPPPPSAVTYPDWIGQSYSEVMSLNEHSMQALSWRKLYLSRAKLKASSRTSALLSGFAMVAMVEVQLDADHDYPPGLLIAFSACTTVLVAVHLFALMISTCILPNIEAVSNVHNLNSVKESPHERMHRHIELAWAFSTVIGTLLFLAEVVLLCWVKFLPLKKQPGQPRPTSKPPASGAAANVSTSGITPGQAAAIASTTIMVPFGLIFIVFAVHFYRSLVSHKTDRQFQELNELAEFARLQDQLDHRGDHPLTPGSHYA

How the values were obtained:
[1] = target: stromal-interacting molecule 1 (STIM1) (human (endogenous in HeLa)) (UniProt Q13586); assay: co-IP; anti-STIM1 as the capture antibody (2 ug antibody on 2 mg protein sample, 4 °C, 24 h, protein A/G beads); lysates of cells transfected with SK, WT or mutant GLT-1 plasmids; Western blot for GLT-1 and Orai1
GLT-1 G82R = GLT-1 G82R (UniProt P43006); assay: co-IP; anti-GLT-1 as the capture antibody (2 ug antibody on 2 mg protein sample, 4 °C, 24 h, protein A/G beads); lysates of cells transfected with SK, WT or mutant GLT-1 plasmids; Western blot for STIM1 and Orai1
GLT-1 L85P = GLT-1 L85P (UniProt P43006); assay: as above
GLT-1 P289R = GLT-1 P289R (UniProt P43006); assay: as above

Row | binding [1] | binding (GLT-1 G82R) | binding (GLT-1 L85P) | binding (GLT-1 P289R) | Substance
1 | binds |  |  |  | GLT-1 G82R (from UniProt P43006)
2 | binds |  |  |  | GLT-1 L85P (from UniProt P43006)
3 | binds |  |  |  | GLT-1 P289R (from UniProt P43006)
4 |  | binds | binds | binds | Orai1 (from UniProt Q96D31 1-301)
5 |  | binds | binds | binds | stromal-interacting molecule 1 (STIM1) (from UniProt Q13586 23-685)
